# Measured values reported in the supplement of paper PMC8728848.
# The other results are listed elsewhere or left out.
# B1: GST-Gap1 (Streptococcus parasanguinis), A1C3L5 (protein)
# chain: MFYFVPSWYNGQRQWYYDTPWWFRVKNRMTFDDSVNQVKMFLQGQEEIGLMILNYQPQLRYFLHKQNIFGIYYWSFFDDIQNITRSYTKIIHLKDLNWPEGCEFLYSPFAVVVRLKGEIFAIVNYAEDGNLHSVSFQKNGKVTKDYIFDDRGFLSSILYYDIDERPLYQDYLNINGVWQVREFLKKENDPTPILMINDFSDQTFSKKYYNGWEELIKERLAIFQNNHVENEDVFVLASDTQHNQLVSSIFKEHRKIYSFFGNRFNLENLGQDRISINDATFLVVDTEKNEELLRKTCENLVFKSIPIVRLSPFDSRLRLGHSQTVKEQIIYFHIDNIELDELYSVIAIILELMTLHLDIELRIVTFRQDFQLDLLKTWIIDFIKTNHFEDLLFKQISEGENEIEDEGEIELSRIAMECFTNENQIIKCLDTARLVIDLGIEPDLYTQIASISAGIPQINRVSSDYVIHQKNGLVISDISKLSSAIEFYFDGLFNWNEALIYAVRKMSDYTSGKILKQWKGMLKKK
# Key:
# Assay in all cases: glycan array binding signal (z-score within array); higher = stronger binding
# Details in all cases: glycan notation: IUPAC condensed, linker removed
# [1] = target: Gal(b1-4)GlcNAc(b1-3)GalNAc
# Outline: (§1)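 The Consortium for Functional Glycomics database supplied 3228 glycan arrays, of which those lacking an available protein sequence were dropped. The binding signal, a within-array Z-score, was averaged across arrays of the same protein sequence and across linkers. Negative scores can be read as non-binding.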
# [2] = target: Gal(b1-4)GlcNAc(b1-3)[Fuc(a1-3)GlcNAc(b1-6)]Gal(b1-4)Glc
# Outline: as §1
# [3] = target: Gal(b1-4)GlcNAc(b1-3)[Gal(b1-4)GlcNAc(b1-6)]Gal(b1-4)GlcNAc
# Outline: as §1
# [4] = target: Gal(b1-4)GlcNAc(b1-3)[Gal(b1-4)GlcNAc(b1-6)]GalNAc
# Outline: as §1
# [5] = target: Gal(b1-4)GlcNAc(b1-3)[GlcNAc(b1-6)]Gal(b1-4)GlcNAc
# Outline: as §1
# [6] = target: Gal(b1-4)GlcNAc(b1-6)Gal(b1-4)GlcNAc
# Outline: as §1
# [7] = target: Gal(b1-4)GlcNAc(b1-6)GalNAc
# Outline: as §1
# [8] = target: Gal(b1-4)GlcNAc(b1-6)[Gal(b1-3)]GalNAc
# Outline: as §1
# [9] = target: Gal(b1-4)GlcNAc(b1-6)[Gal(b1-4)GlcNAc(b1-3)]GalNAc
# Outline: as §1
# Gal(b1-4)GlcNAc6P = target: Gal(b1-4)GlcNAc6P
# Outline: as §1
# Gal(b1-6)Gal = target: Gal(b1-6)Gal
# Outline: as §1
# Gal3S(b1-3)GalNAc = target: Gal3S(b1-3)GalNAc
# Outline: as §1
# Gal3S(b1-3)GlcNAc = target: Gal3S(b1-3)GlcNAc
# Outline: as §1
# [10] = target: Gal3S(b1-3)[Fuc(a1-4)]GlcNAc
# Outline: as §1
# Gal3S(b1-4)Glc = target: Gal3S(b1-4)Glc
# Outline: as §1
# Gal3S(b1-4)Glc6S = target: Gal3S(b1-4)Glc6S
# Outline: as §1
# Gal3S(b1-4)GlcNAc = target: Gal3S(b1-4)GlcNAc
# Outline: as §1
# Gal3S(b1-4)GlcNAc6S = target: Gal3S(b1-4)GlcNAc6S
# Outline: as §1
# [11] = target: Gal3S(b1-4)[Fuc(a1-3)]Glc
# Outline: as §1
# [12] = target: Gal3S(b1-4)[Fuc(a1-3)]Glc6S
# Outline: as §1
# [13] = target: Gal3S(b1-4)[Fuc(a1-3)]GlcNAc
# Outline: as §1
# [14] = target: Gal3S(b1-4)[Fuc(a1-3)]GlcNAc6S
# Outline: as §1
# Gal3S4S(b1-4)GlcNAc = target: Gal3S4S(b1-4)GlcNAc
# Outline: as §1
# Gal3S6S(b1-4)GlcNAc = target: Gal3S6S(b1-4)GlcNAc
# Outline: as §1
# Gal3S6S(b1-4)GlcNAc6S = target: Gal3S6S(b1-4)GlcNAc6S
# Outline: as §1
# Gal4S(b1-4)GlcNAc = target: Gal4S(b1-4)GlcNAc
# Outline: as §1
# Gal4S6S(b1-4)GlcNAc = target: Gal4S6S(b1-4)GlcNAc
# Outline: as §1
# Gal6P(b1-4)GlcNAc = target: Gal6P(b1-4)GlcNAc
# Outline: as §1
# Gal6S(b1-3)GlcNAc = target: Gal6S(b1-3)GlcNAc
# Outline: as §1
# Gal6S(b1-3)GlcNAc6S = target: Gal6S(b1-3)GlcNAc6S
# Outline: as §1
# Gal6S(b1-4)Glc = target: Gal6S(b1-4)Glc
# Outline: as §1
# Gal6S(b1-4)Glc6S = target: Gal6S(b1-4)Glc6S
# Outline: as §1
# Gal6S(b1-4)GlcNAc = target: Gal6S(b1-4)GlcNAc
# Outline: as §1
# Gal6S(b1-4)GlcNAc6S = target: Gal6S(b1-4)GlcNAc6S
# Outline: as §1
# GalNAc(a1-3)Gal = target: GalNAc(a1-3)Gal
# Outline: as §1
# GalNAc(a1-3)GalNAc = target: GalNAc(a1-3)GalNAc
# Outline: as §1
# [15] = target: GalNAc(a1-3)GalNAc(a1-3)Gal(a1-4)Gal(b1-4)GlcNAc
# Outline: as §1
# [16] = target: GalNAc(a1-3)GalNAc(b1-3)Gal(a1-4)Gal(b1-4)Glc
# Outline: as §1
# [17] = target: GalNAc(a1-3)GalNAc(b1-3)Gal(a1-4)Gal(b1-4)GlcNAc
# Outline: as §1
# GalNAc(b1-3)Gal = target: GalNAc(b1-3)Gal
# Outline: as §1
# [18] = target: GalNAc(b1-3)Gal(a1-4)Gal(b1-4)GlcNAc
# Outline: as §1
# [19] = target: GalNAc(b1-3)Gal(a1-4)Gal(b1-4)GlcNAc(b1-3)Gal(b1-4)Glc
# Outline: as §1
# [20] = target: GalNAc(b1-3)Gal(a1-6)Gal(b1-4)Glc
# Outline: as §1
# GalNAc(b1-3)GalNAc = target: GalNAc(b1-3)GalNAc
# Outline: as §1
# GalNAc(b1-3)GlcNAc = target: GalNAc(b1-3)GlcNAc
# Outline: as §1
binder,measurement,setting,value
B1,glycan array binding signal (z-score),[1],0.475
same,glycan array binding signal (z-score),[2],-0.301
same,glycan array binding signal (z-score),[3],0.066
same,glycan array binding signal (z-score),[4],-0.151
same,glycan array binding signal (z-score),[5],0.578
same,glycan array binding signal (z-score),[6],-0.249
same,glycan array binding signal (z-score),[7],0.268
same,glycan array binding signal (z-score),[8],0.095
same,glycan array binding signal (z-score),[9],1
same,glycan array binding signal (z-score),Gal(b1-4)GlcNAc6P,-1.02
same,glycan array binding signal (z-score),Gal(b1-6)Gal,0.538
same,glycan array binding signal (z-score),Gal3S(b1-3)GalNAc,-0.28
same,glycan array binding signal (z-score),Gal3S(b1-3)GlcNAc,0.83
same,glycan array binding signal (z-score),[10],-0.109
same,glycan array binding signal (z-score),Gal3S(b1-4)Glc,0.496
same,glycan array binding signal (z-score),Gal3S(b1-4)Glc6S,0.096
same,glycan array binding signal (z-score),Gal3S(b1-4)GlcNAc,0.12
same,glycan array binding signal (z-score),Gal3S(b1-4)GlcNAc6S,0.348
same,glycan array binding signal (z-score),[11],-0.553
same,glycan array binding signal (z-score),[12],0.597
same,glycan array binding signal (z-score),[13],0.895
same,glycan array binding signal (z-score),[14],-0.572
same,glycan array binding signal (z-score),Gal3S4S(b1-4)GlcNAc,-0.342
same,glycan array binding signal (z-score),Gal3S6S(b1-4)GlcNAc,-0.171
same,glycan array binding signal (z-score),Gal3S6S(b1-4)GlcNAc6S,-0.183
same,glycan array binding signal (z-score),Gal4S(b1-4)GlcNAc,-0.467
same,glycan array binding signal (z-score),Gal4S6S(b1-4)GlcNAc,-0.08
same,glycan array binding signal (z-score),Gal6P(b1-4)GlcNAc,0.207
same,glycan array binding signal (z-score),Gal6S(b1-3)GlcNAc,-0.285
same,glycan array binding signal (z-score),Gal6S(b1-3)GlcNAc6S,0.817
same,glycan array binding signal (z-score),Gal6S(b1-4)Glc,0.047
same,glycan array binding signal (z-score),Gal6S(b1-4)Glc6S,0.653
same,glycan array binding signal (z-score),Gal6S(b1-4)GlcNAc,-0.065
same,glycan array binding signal (z-score),Gal6S(b1-4)GlcNAc6S,-0.247
same,glycan array binding signal (z-score),GalNAc(a1-3)Gal,-0.282
same,glycan array binding signal (z-score),GalNAc(a1-3)GalNAc,-0.202
same,glycan array binding signal (z-score),[15],-0.419
same,glycan array binding signal (z-score),[16],-0.206
same,glycan array binding signal (z-score),[17],0.773
same,glycan array binding signal (z-score),GalNAc(b1-3)Gal,0.1
same,glycan array binding signal (z-score),[18],0.159
same,glycan array binding signal (z-score),[19],-0.326
same,glycan array binding signal (z-score),[20],-0.325
same,glycan array binding signal (z-score),GalNAc(b1-3)GalNAc,0.329
same,glycan array binding signal (z-score),GalNAc(b1-3)GlcNAc,-0.376

# Another view of some results above:
binder	measurement	setting	value
B1	glycan array binding signal (z-score)	Gal3S(b1-3)GalNAc	-0.28
same	glycan array binding signal (z-score)	Gal3S(b1-3)GlcNAc	0.83
same	glycan array binding signal (z-score)	[10]	-0.109
